Laboratory results from PMC3097237, “Exploiting Nucleotide Composition to Engineer Promoters”.
For at least one entry, the source does not settle the construct or the ends of the probe.

Sequences of proteins named here, by UniProt entry; tags and fusion partners are left off.
UniProt P20226, whole entry: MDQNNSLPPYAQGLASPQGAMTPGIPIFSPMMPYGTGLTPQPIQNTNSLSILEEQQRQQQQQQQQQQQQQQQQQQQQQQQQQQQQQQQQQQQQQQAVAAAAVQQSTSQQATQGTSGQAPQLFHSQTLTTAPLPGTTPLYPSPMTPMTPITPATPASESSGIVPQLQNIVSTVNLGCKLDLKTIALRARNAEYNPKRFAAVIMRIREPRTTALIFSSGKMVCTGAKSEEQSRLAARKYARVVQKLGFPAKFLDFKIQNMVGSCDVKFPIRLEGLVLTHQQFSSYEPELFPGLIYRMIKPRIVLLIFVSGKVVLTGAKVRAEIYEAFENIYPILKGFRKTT

Biological target: TBP (UniProt P20226)
Assay: BLI
Details: 285 nM TBP, highest association, no Kd (linear binding); BLI (ForteBio Octet QK), streptavidin sensors loaded with biotinylated DNA 25 ug/ml, 1x Kinetics Buffer (ForteBio); pH and temperature not stated; commercial protein; label: 5' biotin (one strand, PCR primer)

“TCGACGCGCGTATAACACGCGAGCGGTTCGAACGTTGGCGCGCTAACGCGAGTCGTACGCCCGTCAACGCGGATCAATCGCGCGACTTGTGCGCGACGTTAGACCGCCGATCGTCAAGCGCCGATCGGTAATCGGACGATTCGGATACGCGAGTTCGGACGTACGAGCGTGATACGGCGCGTAACGGTGCGCGTTAAAACGCCGACGCGTCATAACCGCGACTCGTCGACGC (double strand) [ArS232]”: binds.
